Source: patent US12365732
Results are given in words; binding and its absence hold for the method and conditions named. Some results given as binding are weak or reduced against the parent protein; the word gives no strength.

T1: hu-CD96 (soluble, isoform 2 extracellular domain) (human) (UniProt P40200)
T1 sequence (chain, biotinylated in Octet and blocking ELISA): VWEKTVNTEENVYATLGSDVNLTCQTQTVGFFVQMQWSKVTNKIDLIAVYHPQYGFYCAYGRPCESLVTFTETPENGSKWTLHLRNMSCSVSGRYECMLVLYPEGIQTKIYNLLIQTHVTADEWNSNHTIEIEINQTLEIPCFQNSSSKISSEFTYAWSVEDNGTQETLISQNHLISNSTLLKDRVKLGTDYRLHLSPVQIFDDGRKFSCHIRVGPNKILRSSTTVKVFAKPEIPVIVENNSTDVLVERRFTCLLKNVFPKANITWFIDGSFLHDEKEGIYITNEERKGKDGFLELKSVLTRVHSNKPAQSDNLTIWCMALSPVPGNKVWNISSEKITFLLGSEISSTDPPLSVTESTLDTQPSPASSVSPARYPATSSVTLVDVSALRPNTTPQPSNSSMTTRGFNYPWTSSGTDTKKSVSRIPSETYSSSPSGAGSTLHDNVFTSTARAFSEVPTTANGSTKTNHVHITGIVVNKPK

T2: cy-CD96 (soluble, extracellular domain) (cynomolgus monkey)
T2 sequence (chain, biotinylated in Octet and blocking ELISA): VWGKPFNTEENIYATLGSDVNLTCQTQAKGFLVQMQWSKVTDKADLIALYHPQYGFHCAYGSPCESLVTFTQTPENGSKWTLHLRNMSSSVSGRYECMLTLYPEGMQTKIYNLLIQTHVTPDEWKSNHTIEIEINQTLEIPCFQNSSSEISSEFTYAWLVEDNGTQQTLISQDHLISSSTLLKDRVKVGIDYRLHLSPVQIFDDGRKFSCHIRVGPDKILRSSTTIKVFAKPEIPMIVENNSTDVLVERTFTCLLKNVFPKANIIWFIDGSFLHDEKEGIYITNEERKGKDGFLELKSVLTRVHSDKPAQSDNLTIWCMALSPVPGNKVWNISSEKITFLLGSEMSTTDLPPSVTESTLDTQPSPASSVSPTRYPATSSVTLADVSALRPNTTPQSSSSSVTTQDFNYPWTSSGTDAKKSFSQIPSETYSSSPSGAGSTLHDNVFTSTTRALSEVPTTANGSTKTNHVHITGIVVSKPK

T3: hu-CD96 isoform 1 on HEK293T cells (human) (UniProt P40200)
T3 sequence: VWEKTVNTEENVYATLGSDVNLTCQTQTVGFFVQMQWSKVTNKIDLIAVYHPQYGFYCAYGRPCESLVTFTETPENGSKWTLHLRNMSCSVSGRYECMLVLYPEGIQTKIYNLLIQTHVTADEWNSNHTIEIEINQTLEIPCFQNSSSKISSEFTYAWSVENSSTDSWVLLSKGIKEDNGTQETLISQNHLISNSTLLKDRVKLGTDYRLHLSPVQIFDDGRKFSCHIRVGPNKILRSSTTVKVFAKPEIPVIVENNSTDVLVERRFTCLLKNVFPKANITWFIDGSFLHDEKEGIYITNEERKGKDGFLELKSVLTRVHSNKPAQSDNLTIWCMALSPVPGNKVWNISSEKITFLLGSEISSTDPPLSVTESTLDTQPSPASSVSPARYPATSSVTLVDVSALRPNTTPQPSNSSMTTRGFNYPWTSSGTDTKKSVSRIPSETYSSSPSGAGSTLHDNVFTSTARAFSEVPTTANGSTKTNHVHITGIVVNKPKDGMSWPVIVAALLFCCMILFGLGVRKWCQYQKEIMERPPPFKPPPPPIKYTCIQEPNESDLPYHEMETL

T4: hu-CD96 isoform 2 on CHO cells (human) (UniProt P40200)
T4 sequence: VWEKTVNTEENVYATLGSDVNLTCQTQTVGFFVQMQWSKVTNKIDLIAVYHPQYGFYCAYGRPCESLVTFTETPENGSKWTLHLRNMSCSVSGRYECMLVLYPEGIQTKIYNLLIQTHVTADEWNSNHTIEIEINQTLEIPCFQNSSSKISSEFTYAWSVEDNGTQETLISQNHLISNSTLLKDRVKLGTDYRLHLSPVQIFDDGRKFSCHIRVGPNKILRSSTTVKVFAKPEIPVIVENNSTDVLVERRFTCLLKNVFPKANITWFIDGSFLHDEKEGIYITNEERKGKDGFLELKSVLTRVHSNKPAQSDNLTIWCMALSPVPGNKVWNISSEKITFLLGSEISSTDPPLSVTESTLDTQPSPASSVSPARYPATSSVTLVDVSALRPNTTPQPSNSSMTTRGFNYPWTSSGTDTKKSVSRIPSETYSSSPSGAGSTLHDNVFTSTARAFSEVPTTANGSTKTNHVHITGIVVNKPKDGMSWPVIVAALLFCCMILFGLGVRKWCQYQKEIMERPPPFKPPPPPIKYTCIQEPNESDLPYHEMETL

T5: hu-CD226 on Expi293 cells (human) (UniProt Q15762)
T5 sequence: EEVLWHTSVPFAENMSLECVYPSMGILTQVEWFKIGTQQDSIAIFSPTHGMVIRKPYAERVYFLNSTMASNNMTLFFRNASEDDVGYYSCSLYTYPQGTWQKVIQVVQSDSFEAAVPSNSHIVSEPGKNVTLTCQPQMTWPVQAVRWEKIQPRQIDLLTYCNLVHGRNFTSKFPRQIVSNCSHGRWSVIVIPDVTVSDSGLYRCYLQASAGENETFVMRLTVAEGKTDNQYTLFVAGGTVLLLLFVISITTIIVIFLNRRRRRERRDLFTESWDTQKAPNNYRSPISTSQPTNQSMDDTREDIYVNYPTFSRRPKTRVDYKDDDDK


What was measured:
[1] = target: T1, hu-CD96 (soluble, isoform 2 extracellular domain) (human); experiment: BLI (Octet)
[2] = target: T2, cy-CD96 (soluble, extracellular domain) (cynomolgus monkey); experiment: BLI (Octet)
[3] = target: T3, hu-CD96 isoform 1 on HEK293T cells (human); experiment: FACS
[4] = target: T4, hu-CD96 isoform 2 on CHO cells (human); experiment: FACS
[5] = target: T5, hu-CD226 on Expi293 cells (human); experiment: flow cytometry on huCD226-transfected Expi293 cells, PE-labelled secondary antibody, fold change in huCD226 binding

binding [1] | binding [2] | binding [3] | binding [4] | binding [5] | Binder
binds | – | – | – | – | mAb1.v7.NGS8 Fab (Fab, V domains shown) VH: EVQLVQSGAEVKKPGASVKVSCKASGFTFTNNFMHWVRQAPGQGLEWIGMIHANSGITNINEKFKNRVTMTTDTSTSTAYMELRSLRSEDTAVYYCRSDGIYEGYFDYWGQGTLVTVSS VL: DIQLTQSPSSLSASVGDRVTITCKASQNVGTAIVWYQQKPGKAPKVLIYSASTRYTGVPSRFSGSGSGTDFTLTISSLQPEDFATYYCQQYSSSPLTFGQGTKVEIK
binds | binds | – | – | – | mAb1.v7.NGS9 Fab (Fab, V domains shown) VH: EVQLVQSGAEVKKPGASVKVSCKASGFTFTNNFMHWVRQAPGQGLEWIGMIHANSGITNINEKFKNRVTMTTDTSTSTAYMELRSLRSEDTAVYYCRSDGVYEGYFDYWGQGTLVTVSS VL: DIQLTQSPSSLSASVGDRVTITCKASQNVGTAIVWYQQKPGKAPKVLIYSASTRYTGVPSRFSGSGSGTDFTLTISSLQPEDFATYYCQQYSSSPLTFGQGTKVEIK
– | – | binds | binds | binds | 10G1 (clone 10G1.3G8), purified hybridoma antibody (antibody, V domains shown) VH: QIQLVQSGPELKKPGETVKISCKASGYPFTTYGMSWVKQAPGKGLKWMGWINTDSGVPTYADDFKGRFAFSLETSANTAYLQINSLKNEDAATYFCARNIYYGWGNFDYWGQGTILTVSS VL: DILMTQSPTTLSVTPGETVSLSCRASQDIYRNLHWYQQKSQGTPRLLIKHASDSISGIPSRFTGSGSGTDFTLSINSVKPEDEGIYYCLQGYSMPYTFGGGTKLEIK
